# In publication doi:10.1101/2025.05.07.652675:
# The chains behind the UniProt entries cited, without tags or fusion partners. Where a name states a change or a piece, a line headed by the entry shows the natural chain unless it says otherwise.
# UniProt P0A9A6: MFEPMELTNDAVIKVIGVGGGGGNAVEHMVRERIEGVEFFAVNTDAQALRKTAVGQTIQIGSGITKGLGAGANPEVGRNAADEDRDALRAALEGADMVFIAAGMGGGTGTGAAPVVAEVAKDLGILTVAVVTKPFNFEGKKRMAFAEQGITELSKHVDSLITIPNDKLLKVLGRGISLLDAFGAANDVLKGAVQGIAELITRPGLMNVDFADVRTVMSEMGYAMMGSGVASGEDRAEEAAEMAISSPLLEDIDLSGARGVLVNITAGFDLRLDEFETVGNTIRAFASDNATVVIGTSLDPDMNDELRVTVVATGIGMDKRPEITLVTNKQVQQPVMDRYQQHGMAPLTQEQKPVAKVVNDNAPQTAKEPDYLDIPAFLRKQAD
# B1: ZapA (bacterial two-hybrid fusion) (protein, UniProt P0ADS2 1-109)
# chain: MSAQPVDIQIFGRSLRVNCPPDQRDALNQAADDLNQRLQDLKERTRVTNTEQLVFIAALNISYELAQEKAKTRDYAASMEQRIRMLQQTIEQALLEQGRITEKTNQNFE
# Molecular target: FtsZ-T25 fusion protein (bacterial two-hybrid) (E. coli) (UniProt P0A9A6)
# Experiment: two-hybrid
binder,measurement,value
B1,binding,binds

# These are yes or no findings as the source states them, for the method shown. Binding can be weak; no strength is given. Where a sequence is shown, tags or fusion partners need not be part of it.
